Source: PubChem BioAssay AID504467 (National Center for Advancing Translational Sciences (NCATS), 2011)
Among all 330,000 compounds or so, about 7,700 (2.3%) were called active. Inconclusive results, whose numbers are uncertain, are shown with a selection of clear calls. Calls follow the shape of the dose curve; as a rule, active = well fitted inhibition curve with a large enough effect; inconclusive = small, poorly fitted or top-dose-only effect, or effect the other way; inactive = flat fitted curve, though single readings scatter. Potencies beside an inconclusive call are fits to weak or partial responses and may not hold up.

Experiment: qHTS screen for small molecules that inhibit ELG1-dependent DNA repair in human embryonic kidney (HEK293T) cells expressing luciferase-tagged ELG1; also: nearly all actives have a fitted effect of over 55% in size
Settings: HEK293T ELG1-luciferase reporter, luminescence, 16 h, DNA damage induced by 5-fluorouridine; activity change, negative = inhibition: at 46.1 µM (top of the series)
In short: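 Step one: seed 2,000 cells per well. Step two: pin-transfer compound or DMSO alongside 5-fluorouridine. Step three: incubate 16 hr, 37 °C, 5% CO2. Step four: add ONE-Glo, wait 30 min, read luminescence.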
% is scaled to controls: 0 for no effect and ±100 for the full control effect; potency is read from the fitted curve at half-maximal effect.

Structure (SMILES) | Potency | activity change, negative = inhibition
COc1ccc(C2CC(=O)Oc3cc(OC)c(OC)c(OC)c32)cc1 (stereo not given) | inconclusive: 20.6 µM [activator, partial curve, poor fit] | 
O=C(/C=C/c1ccc(Cl)cc1)NCCc1ccccc1 | inconclusive: 18.4 µM [activator, single point] | 
Cn1c(C(=O)N2CCCC(C(=O)O)C2)cc2sccc21 (stereo not given) |  | inactive: 13.4%
CCOc1cc(/C=N\NC(=O)c2ccc(NC(=O)CC)cc2)ccc1OC(=O)c1ccccc1 |  | inactive: 4.78%
CC(=O)c1ccc(N=C2NC(=O)C(CO)(CO)S2)cc1 |  | inactive: 26.9%
Cc1cccc(COCC(Cc2ccccc2)N2CCN(C(=O)c3cccc(Cl)c3)CCC2=O)c1 (stereo not given) | inconclusive: 13 µM [inhibitor, partial curve, poor fit] | 
CC(=O)c1cccc(NC(=O)c2sc3nc4n(c(=O)c3c2C)CCCCC4)c1 | inconclusive: 23.1 µM [inhibitor, single point] | 
Cc1ccc2c(c1)sc(=NC(=O)C1CC1)n2C | inconclusive: 16.4 µM [activator, partial curve] | 
O=C(Nc1ccc(CCC(=O)N2CCCC2)cc1)c1ncn[nH]1 |  | inactive: 22.2%
CSC1=C(C#N)C(C)C2=C(CC(C)(C)CC2=O)N1 (stereo not given) | inconclusive: 18.4 µM [inhibitor, single point] | 
O=C(NCc1ccc2c(c1)OCO2)c1cccnc1Cl |  | inactive: 22.8%
CCOC(=O)N1CCN(S(=O)(=O)N2CCCC(C(=O)NCCCN3CCCCC3CC)C2)CC1 (stereo not given) |  | inactive: 6.52%
COc1ccc(/C=N/NC(=O)c2ccncc2)cc1[N+](=O)[O-] |  | inactive: 14.3%
CC(C)(C)OC(=O)N/N=C/c1cccc([N+](=O)[O-])c1 | inconclusive: 9.2 µM [activator, partial curve] | 
CCOc1ccc(C(=O)Nc2nnc(SCC(=O)NCC3CCCO3)s2)cc1 (stereo not given) | inconclusive: 0.58 µM [activator, full curve] | 
O=C(c1ccc(Sc2cccc(Cl)c2)c([N+](=O)[O-])c1)N1CCN(c2ccccn2)CC1 |  | inactive: -26%
COc1ccc(NC(=O)CCC(=O)NCCO)cc1 | inconclusive: 29.1 µM [inhibitor, single point] | 
C=C(C)CNC(=S)Nc1cccc2cnccc12 | inconclusive: 0.461 µM [inhibitor, full curve, poor fit] | 
C/C(=N\N=C1\NC(=O)CS1)c1cccs1 |  | inactive: 22.3%
O=C(COc1ccc2ccccc2c1)Nc1ccc(Br)cc1C(=O)O |  | inactive: 8.37%
CC(NS(=O)(=O)c1ccc(Cl)cc1)C(=O)OCC(=O)c1ccc[nH]1 (stereo not given) |  | inactive: 6.91%
O=C(NCCCCNC(=O)c1cccnc1Cl)c1cccnc1Cl |  | inactive: -1.45%
COc1ccc(NC(=O)Nc2cnccn2)cc1 | inconclusive: 20.6 µM [activator, partial curve] | 
Cc1ccc(C(=O)Nc2ccc3c4c(cccc24)CC3)cc1[N+](=O)[O-] |  | inactive: -29.2%
CCn1ncc(/C=C/C(=O)C2CC2)c1C | inconclusive: 18.4 µM [activator, single point] | 

Structure (SMILES) | Potency | activity change, negative = inhibition
COC(=O)C1=CN(c2ccc(F)cc2)C=C(C(=O)OC)C1c1cccc(Br)c1 |  | inactive: -15.7%
Cc1noc(C)c1CSCC(=O)N(C)CC(=O)Nc1ccccc1Cl |  | inactive: 11.6%
CCCCCCOc1ccc(C(=O)O)cc1C#N | inconclusive: 18.4 µM [activator, partial curve, poor fit] | 
COc1ccc(C(=O)Nc2cccc(OC)c2)cc1 | inconclusive: 2.91 µM [activator, full curve] | 
NC(=O)c1ccccc1NC(=O)c1ccccc1Cl |  | inactive: 14.5%
C[C@@]12C(=O)Nc3cc(Cl)ccc3C(=O)N1[C@H]1c3cc(Br)ccc3OC[C@@H]1[C@@H]2c1ccccc1 | inconclusive: 12.6 µM [inhibitor, partial curve, poor fit] | 
COc1ccccc1CNC(=O)c1cccc(S(=O)(=O)N(C)c2ccccc2)c1 | inconclusive: 29.1 µM [inhibitor, single point] | 
Cc1cccc(N2CCN(Cc3nc(-c4cccc(Cl)c4)oc3C)CC2)n1 | inconclusive: 29.1 µM [inhibitor, partial curve, poor fit] | 
O=C(CSc1ccc2ccccc2n1)N1CCC(c2noc3ccc(F)cc23)CC1 | inconclusive: 23.1 µM [inhibitor, single point] | 
COc1ccc(-c2nc3c(n2O)CCc2c-3no[n+]2[O-])cc1 | inconclusive: 18.3 µM [activator, partial curve] | 
O=c1cc(O)c2ccc(O)cc2o1 |  | inactive: 26.6%
O=[N+]([O-])c1ccc2c(c1)C(O)n1nc(-c3ccc(Cl)cc3Cl)nc1S2 (stereo not given) |  | inactive: 13%
Cc1ccc(N2C(=O)[C@@H]3[C@H](C2=O)C2c4ccccc4C=CN2[C@@H]3C(=O)c2ccco2)c(C)c1 (stereo not given in full) |  | inactive: -5.72%
CCOC(=O)/C(C#N)=N\Nc1cc(Cl)ccc1OC |  | inactive: 0%
Cc1ccccc1Oc1nc2c(C)cccn2c(=O)c1/C=C(\C#N)C(=O)Nc1c(C)n(C)n(-c2ccccc2)c1=O |  | inactive: -1.51%
CC(=O)c1c(C)[nH]c(C(=O)CN2C(=O)NC(C)(c3ccc(C)cc3)C2=O)c1C (stereo not given) | inconclusive: 18.3 µM [activator, single point] | 
COc1ccc(-n2c3c(cc(C(=O)NNc4ccccc4)c2=O)C(=O)CC(C)(C)C3)cc1 | inconclusive: 29.1 µM [inhibitor, single point] | 
O=C(N/N=C/c1ccccn1)c1ccc(NC(=O)c2cccc([N+](=O)[O-])c2)cc1 | active: 16.4 µM | 
Cc1nnc(CN(C)C(=O)c2cc(COc3ccc(C)c(C)c3)on2)o1 | inconclusive: 20.6 µM [activator, single point] | 
O=C1NN(c2ccccc2)C(=O)/C1=C/c1ccc(-c2ccc(Cl)c(C(=O)O)c2)o1 |  | inactive: 11%
O=C(NCCc1ccco1)C(=O)NCC1OCCCN1S(=O)(=O)c1ccc(F)cc1 (stereo not given) |  | inactive: -1.42%
CC(=O)SC1CC(=O)N(c2c(C)cccc2C)C1=O (stereo not given) |  | inactive: -21.6%
Cc1[nH]n(-c2ccccc2)c(=S)c1C=NCCCN=Cc1c(C)[nH]n(-c2ccccc2)c1=S | inconclusive: 11.6 µM [activator, partial curve] | 
c1ccc(-c2ccc3c(c2)c2c4n3CCN=C4CCC2)cc1 |  | inactive: -11.4%
CC(=O)c1ccc(Nc2cnn(C34CC5CC(CC(CC(=O)O)(C5)C3)C4)c(=O)c2Cl)cc1 |  | inactive: 3.33%

Gathered by group, those above containing a COOH group (5)
Structure (SMILES) | Potency | activity change, negative = inhibition
Cn1c(C(=O)N2CCCC(C(=O)O)C2)cc2sccc21 (stereo not given) |  | inactive: 13.4%
O=C(COc1ccc2ccccc2c1)Nc1ccc(Br)cc1C(=O)O |  | inactive: 8.37%
CCCCCCOc1ccc(C(=O)O)cc1C#N | inconclusive: 18.4 µM [activator, partial curve, poor fit] | 
O=C1NN(c2ccccc2)C(=O)/C1=C/c1ccc(-c2ccc(Cl)c(C(=O)O)c2)o1 |  | inactive: 11%
CC(=O)c1ccc(Nc2cnn(C34CC5CC(CC(CC(=O)O)(C5)C3)C4)c(=O)c2Cl)cc1 |  | inactive: 3.33%

The results go on.

Structure (SMILES) | Potency | activity change, negative = inhibition
O=C(C(c1ccccc1)c1ccccc1)N1CCCc2ccccc21 | inconclusive: 20.6 µM [activator, single point] | 
Cc1ccc(-n2c(-c3cc(C)n(C)n3)n[nH]c2=S)cc1 |  | inactive: -2.47%
Cn1c(-c2c(N)n(-c3ccccc3)c3nc4ccccc4nc23)nc2ccccc21 | inconclusive: 2.91 µM [inhibitor, full curve] | 
O=C(NCc1ccccn1)c1ccc2c(=O)n3nc(Nc4ccccc4)sc3nc2c1 | inconclusive: 4.11 µM [inhibitor, single point] | 
C/C(=N\NC(=O)c1nn(C)c(C)c1Br)c1cccc(NC(=O)c2ccoc2C)c1 | inconclusive: 14.6 µM [activator, partial curve] | 
Cc1occc1C(=O)N/N=C/c1cccs1 | inconclusive: 10 µM [activator, partial curve] | 
CCOC(=O)CCc1c(C)c2ccc(OCC)c(C)c2oc1=O | inconclusive: 25.9 µM [activator, single point] | 
O=C1CC(N2CCCCCC2)C(=O)N1c1ccc(F)cc1 (stereo not given) |  | inactive: 9.48%
O=C(Cn1c(=O)oc2ccccc21)N(Cc1ccccc1)C1CCS(=O)(=O)C1 (stereo not given) |  | inactive: 0.0306%
CCc1ccc(/C=N/NC(=O)c2cc(C)on2)s1 | inconclusive: 23.1 µM [activator, partial curve] | 
O=C(Nc1ccc(Cl)cc1)Nc1ccc(S(=O)(=O)Nc2ncccn2)cc1 |  | inactive: -5.01%
CCCCNC(=O)CCc1c(C)nc2nc(-c3cc(OC)cc(OC)c3)nn2c1C | active: 2.31 µM | 
Nc1nc(Nc2ccccc2)sc1C(=O)c1ccccc1 | inconclusive: 5.8 µM [activator, partial curve] | 
CCOC(=O)C1=C(COC(=O)c2cccc(NC(C)=O)c2)NC(=O)NC1C (stereo not given) | inconclusive: 7.3 µM [inhibitor, single point] | 
CCOc1ccc(N=c2oc3cc(O)ccc3cc2C(=O)NCC2CCCO2)cc1 (stereo not given) | active: 2.06 µM | 
c1ccc(CN2CCC(Nc3nc(-c4cccs4)nc4ccccc34)CC2)cc1 | inconclusive: 29.1 µM [inhibitor, single point] | 
COc1ccccc1C/C(N)=N/OC(=O)/C=C/c1ccccc1 |  | inactive: 12.9%
COc1cc2c(cc1OC)C(C)N(C(=O)Cn1ncc3c1-c1cc(C)ccc1OC3)CC2 (stereo not given) | active: 18.4 µM | 
Cc1cc(C)cc(NC(=S)N2CC(C)OC(C)C2)c1 (stereo not given) |  | inactive: -4.47%
O=C(CN(c1ccc(F)cc1)S(=O)(=O)c1ccccc1)NC1CCCCCC1 | inconclusive: 29.1 µM [activator, single point] | 
Cc1cc(N2CCN(C/C=C/c3ccccc3)CC2)n2ncnc2n1 | inconclusive: 0.411 µM [activator, single point] | 
CCc1nnc(NS(=O)(=O)c2ccc(NC(=O)c3cccc4ccccc34)cc2)s1 | inconclusive: 9.2 µM [activator, partial curve, poor fit] | 
CC(C)NC(=O)NC(=O)COC(=O)CCOc1ccccc1 | inconclusive: 20.6 µM [activator, single point] | 
Cc1cc(C(=O)N/N=C/c2c[nH]c3ccccc23)cs1 | inconclusive: 23.1 µM [activator, single point] | 
COc1ccc(CCn2c(C)c(C(C)=O)c3cc(OC(=O)c4ccco4)ccc32)cc1OC | inconclusive: 23.1 µM [inhibitor, partial curve] | 
